{"source": "patent US10994010B2", "about": "“Selective targeting of the CD40L/Mac-1 interaction by small peptide inhibitors and its use for the treatment of inflammation and atherogenesis” (Universitaetsklinikum Freiburg, priority 2010, dated 2021)", "key": {"TNFα-challenged mice [1]": {"system": "TNFα-challenged mice", "assay": "Cytokine challenge (TNF-α) with plasma cytokines, oxidative stress and platelet activation", "type": "in vivo, C57BL/6J mice"}, "[2]": {"system": "adhesion of Mac-1-CHO cells to ICAM-1", "assay": "Dynamic flow chamber assay: Mac-1-CHO cells on ICAM-1", "type": "cell-based", "conditions": "peptides 1 μM"}, "[3]": {"system": "thioglycollate-elicited leukocyte recruitment", "assay": "Murine peritonitis model (thioglycollate)", "type": "in vivo, mice"}, "[4]": {"system": "adhesion of Mac-1-CHO cells to GPIbα", "assay": "Dynamic flow chamber assay: Mac-1-CHO cells on GPIbα", "type": "cell-based", "conditions": "peptides 1 μM", "protocol": "96-well plates (Nunc) were coated with sCD40L and incubated with CHO cells expressing constitutively activated Mac-1, as described previously, or THP-1 cells. Cells were allowed to adhere for 20 to 50 minutes. Blocking antibodies (10 μg/ml) were pre-incubating with the cells. As indicated, assays were carried out in the presence of peptides (50 μM). Permeabilization buffer (6 mg/ml phosphatase substrate (Sigma), 1% Triton X-100, 50 mM sodium acetate, pH 5.5) was added to quantify adhering cells by colorimetric reaction. Alternatively, adhering cells were counted. Murine EC were isolated as previously described. Mac-1 expressing CHO were loaded with CFDA-SE (Invitrogen), allowed to adhere for 45 minutes, and quantified under the fluorescence microscope. […] Adhering and rolling cells were quantified in a parallel flow chamber system (Glycotech) at the indicated shear rates and in the presence of the indicated peptides (1 μM) or antibodies (10 μg/ml). […]\nFor dynamic adhesion assays, 35 mm dishes were coated overnight at 4° C. with 1% BSA, CD40L, GPIbα (Abnova), ICAM-1 (R&D systems) or fibrinogen (Sigma), at a concentration of 10 μg/ml, and 30 μg/ml, respectively. […] Cells were quantified under the microscope (Olympus). […] Adhesion and rolling of peritoneal exudate cells on isolated murine endothelial cells was quantified as described above. […]"}, "TNFα-challenged mice [5]": {"system": "TNFα-challenged mice", "type": "in vivo", "protocol": "Mice received an intraperitoneal injection 5 hours before surgery of 200 ng of murine TNFα (R&D systems) and 100 μg of peptides dissolved in sterile saline 5 hours before surgery. Mice were anesthetized with an intraperitoneal injection of ketamine hydrochloride (Essex) and xylazin (Bayer) at a dose at 187.5 mg/kg of body weight and 62.5 mg/kg of body weight, respectively. The cremaster muscle was exteriorized as described previously (Iezzi et al., PNAS (2009), pp 876-881). For some experiments a catheter was placed in the jugular vein and peptides were administered during microscopy. The cremaster was superfused with thermo-controlled (36° C.) saline. Mice were placed on a heating pad to maintain body temperature. Videos were taken with an intravital microscope (AxioScope Vario, Carl Zeiss) fitted with a saline immersion objective (WPlan-APOCHROMAT 20x/1,0DIC IR, Carl Zeiss) a high sensitivity camera system (AxioCam MRm, Carl Zeiss) for 30 seconds each. Rolling leukocyte flux was defined as the number of leukocytes moving at a velocity less than erythrocytes. Leukocyte rolling velocity was measured by the average time required for leukocytes to roll over a defined length of the venule at each time point. Adherent leukocytes were defined as cells that remained stationary for at least 30 s. Rolling leukocyte flux, adhering flux were quantified by a blinded investigator."}, "CD40/CD40L": {"target": "T1, CD40/CD40L (Homo sapiens, UniProt P29965)", "T1 sequence (P29965 108-261 limits assumed)": "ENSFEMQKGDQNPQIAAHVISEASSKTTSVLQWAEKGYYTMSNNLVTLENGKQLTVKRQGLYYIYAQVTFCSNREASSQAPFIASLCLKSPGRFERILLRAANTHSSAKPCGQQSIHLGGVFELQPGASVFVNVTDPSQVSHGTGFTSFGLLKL", "assay": "Binding of CD40L to immobilized CD40-Fc fragments"}, "[6]": {"system": "adhesion of Mac-1-CHO cells to CD40L", "assay": "Dynamic flow chamber assay: Mac-1-CHO cells on immobilized CD40L", "type": "cell-based", "conditions": "peptides 1 μM"}, "LDLr−/− mice": {"system": "LDLr−/− mice", "assay": "Atherogenesis study, high-cholesterol diet 20 weeks", "type": "in vivo", "protocol": "Atherogenesis study. Eight-week-old male LDL-receptor-deficient (LDLr^−/−) mice (Jackson Laboratories) consuming a high-cholesterol diet (HCD) were treated with intraperitoneal injections of the peptides cM7, scM7 (Peptide Specialty Laboratory) in a dose of 100 μg, or sterile saline three times a week. After 20 weeks blood samples were taken for flow cytometric analysis of leukocyte subpopulations, cholesterol and triglyceride plasma levels, as well as for the determination of plasma cytokines and chemokines. Blood pressure was determined by a non-invasive blood pressure measurement (NIBP, Harvard Apparatus). Mice were euthanized, and aortic roots and arches were frozen in OCT (OCT compound; Tissue-Tek). Thoracic and abdominal aortas were fixed in 10% buffered formalin. Serial cryostat sections (6 μm) of mouse aortic tissues were fixed in acetone, and air-dried. Nonspecific binding was blocked with 5% species-appropriate normal serum (Vector Laboratories). Sections were then incubated with primary antibodies diluted in phosphate-buffered saline, supplemented with 5% species-appropriate normal serum. Incubation with secondary antibodies was followed by avidin-biotin complex (ABC, Vector Laboratories). Antibody binding was visualized with 3-amino-9-ethylcarbazole (AEC; Dako), followed by counterstaining with Gill's hematoxylin solution (Sigma-Aldrich). Control stainings included staining with the respective IgG isotypes (Pharmingen, Dako). Antibodies used were rat anti-mouse Mac-3 for macrophage specific staining, anti α-actin for smooth muscle cell specific staining (Dako). For the visualization of Type I Collagen, Formalin-fixed frozen sections were incubated for 4 hours in a freshly prepared 0.1% solution of picrosirius red (Polysciences) in saturated aqueous picric acid. After rinsing in 0.01 N HCl and distilled water, sections were dehydrated in 70% ethanol and mounted in Permount (Vector Laboratories). Picrosirius red staining was analyzed by polarization microscopy. As the color of collagen fibers assessed in the picrosirius red staining depends on the thickness of collagen fibers and changes from green (thin fibers) to yellow, orange, and red (thick fibers), color distribution in stained collagen sections was quantified. Deposition of lipids was determined by oil red O staining after formalin fixation in aortic sections or in en face preparations of the abdominal aorta. To quantify the composition of the aortic lesions, sections of the aortic tissue were analyzed microscopically in all mice. Within the aortic root, lesion areas were analyzed in cross-sections obtained at the level of all 3 leaflets of the aortic valve, immediately proximal to the right coronary artery ostium. The total aortic wall area, lesion area in the aortic root, and the percentage of area stained for macrophages, lipids, SMCs, or collagen were determined via computer-assisted image quantification (ImagePro, Media Cybernetics)."}, "[7]": {"conditions": "100 μg i.p., TNFα challenge, 5 hours"}, "[8]": {"conditions": "intraperitoneal injection, TNFα-challenged"}}, "note": "At least one peptide structure holds a part that was inferred or is arguable (an end, a ring closure or a residue). Positions of bridges follow the written chain, without caps; N, C: chain ends. Residues, ends and D or L forms follow the SMILES beside them."}
{"smiles": "CC(C)C[C@@H]1NC(=O)[C@H](CCC(N)=O)NC(=O)[C@H](CCC(=O)O)NC(=O)[C@@H](N)CSSC[C@@H](C(=O)O)NC(=O)[C@H](CC(C)C)NC(=O)[C@H]([C@@H](C)O)NC(=O)[C@H](CCCCN)NC(=O)[C@H](CO)NC(=O)[C@H](CCCCN)NC(=O)[C@H](CCCCN)NC1=O", "note": "[cM7] (H-CEQLKKSKTLC-OH; disulfide 1-11 (inferred); N-terminus and C-terminus assumed)", "values": [{"measurement": "plasma levels of CXCL-1", "setting": "TNFα-challenged mice [1]; [7]", "result": "by tendency also of CXCL-1 and RANTES"}, {"measurement": "plasma levels of MCP-1", "setting": "TNFα-challenged mice [1]; [7]", "result": "expressed lower plasma levels of MCP-1"}, {"measurement": "plasma levels of RANTES", "setting": "TNFα-challenged mice [1]; [7]", "result": "by tendency also of CXCL-1 and RANTES"}, {"measurement": "platelet-leukocyte aggregates", "setting": "TNFα-challenged mice [1]; flow cytometry", "result": "lowered platelet-leukocyte aggregates"}, {"measurement": "TNFα-induced granulocytic oxidative burst", "setting": "TNFα-challenged mice [1]; mouse, in vivo", "result": "attenuated TNFα-induced granulocytic oxidative burst"}, {"measurement": "IL-10 levels", "setting": "TNFα-challenged mice [1]; plasma and peritoneal fluid, TNFα challenge", "result": "IL-10 levels increased both in plasma and in peritoneal fluid"}, {"measurement": "platelet L-selectin expression", "setting": "TNFα-challenged mice [1]; platelet activation, flow cytometry", "result": "reduced platelet L-selectin expression"}, {"measurement": "effect on adhesion of Mac-1-CHO cells to ICAM-1", "setting": "[2]", "result": "did not affect adhesion to ICAM-1 and GPIbα"}, {"measurement": "thioglycollate-elicited peritoneal cell accumulation", "setting": "[3]; CD40L−/− mice", "result": "but not in CD40L^−/− mice"}, {"measurement": "thioglycollate-elicited peritoneal cell accumulation", "setting": "[3]; wild-type mice", "result": "potently decreased thioglycollate-elicited peritoneal cell accumulation in wild-type mice"}, {"measurement": "effect on adhesion of Mac-1-CHO cells to GPIbα", "setting": "[4]", "result": "did not affect adhesion to ICAM-1 and GPIbα"}, {"measurement": "leukocyte rolling", "setting": "TNFα-challenged mice [5]; injected intravenously", "result": "directly blocked leukocyte rolling"}, {"measurement": "leukocyte firm adhesion in cremaster vessels", "setting": "TNFα-challenged mice [5]; [8]", "result": "potently reduced rolling and firm adhesion"}, {"measurement": "leukocyte rolling in cremaster vessels", "setting": "TNFα-challenged mice [5]; [8]", "result": "potently reduced rolling and firm adhesion"}, {"measurement": "effect on binding of CD40L to CD40", "setting": "CD40/CD40L", "result": "did not alter binding of CD40 to CD40L"}, {"measurement": "blocking of adhesion of Mac-1-CHO cells to CD40L", "setting": "[6]", "result": "potently blocked cellular adhesion to CD40L"}, {"measurement": "intimal lesion area in aortic roots", "setting": "LDLr−/− mice; 100 μg i.p. three times a week, 20 weeks", "result": "significantly reduced the intimal lesion area in aortic roots"}, {"measurement": "collagen content of plaques", "setting": "LDLr−/− mice; 20 weeks", "result": "Collagen content increased in plaques of both the treatment group and the control group"}, {"measurement": "lipid deposition in the abdominal aorta", "setting": "LDLr−/− mice; 20 weeks", "result": "reduced"}, {"measurement": "macrophages in atherosclerotic plaques", "setting": "LDLr−/− mice; 20 weeks", "result": "significantly fewer macrophages"}, {"measurement": "smooth-muscle cells in atherosclerotic plaques", "setting": "LDLr−/− mice; 20 weeks", "result": "smooth-muscle cells increased"}, {"measurement": "lipid accumulation in atherosclerotic plaques", "setting": "LDLr−/− mice; 20 weeks, Oil-red-O", "result": "lower lipid accumulation"}, {"measurement": "percentage of red-polarizing, stable collagen fibers", "setting": "LDLr−/− mice; picrosirius-red, vs scM7 and saline", "result": "significantly higher percentage of red-polarizing, stable collagen fibers"}]}
